Test results: the supplement of paper PMC10338343
± gives the standard deviation. The list shows a part of the results, in another mix than the full data. Many entries were measured with a wide error. This is one part of the list.

Experiments:
[1] = test system: MIWI (PIWIL1) piRISC loaded with L1MC piRNA (30 nt); assay: pre-steady-state target cleavage rate (min^-1); higher = faster piRNA-guided slicing of the target; settings: guide: L1MC piRNA 5'p-UAACUAAAUACUAUGCAAGCUGUAGGUCCU;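 note: 1 nM active piRISC with 0.1 nM target library at 33 °C single turnover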
Summary of the method: (§1)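 For Cleave-'n-Seq, a transcribed, DNA-blocked target RNA library […] met 1 nM active affinity-purified piRISC with one synthetic guide at 33 °C for 0–8 or 0–960 min in HEPES–potassium acetate buffer, with or without 500 nM GTSF1 partner protein. Uncleaved targets were sequenced and normalised to depth and weakly complementary targets, with three trials pooled and k3 capped at 0.0001 min^-1. A burst-and-steady-state fit supplied the pre-steady-state cleavage rate.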

[2] = test system: EfPiwi piRISC loaded with L1MC piRNA (26 nt); assay: pre-steady-state target cleavage rate (min^-1); guide: L1MC piRNA 5'p-UAACUAAAUACUAUGCAAGCUGUAGG; MIWI and MILI are mouse PIWI proteins and EfPiwi is from a freshwater sponge; tags in brackets are library labels; higher = faster piRNA-guided slicing of the target
Summary of the method: as §1

[3] = auxiliary factor: none (no GTSF1)
[4] = auxiliary factor: 500 nM Ephydatia muelleri Gtsf1
[5] = auxiliary factor: none (no Gtsf1)
[6] = auxiliary factor: 500 nM mouse GTSF1

Sequence	pre-steady-state target cleavage rate [1, 3]	pre-steady-state target cleavage rate [2, 4]	pre-steady-state target cleavage rate [2, 5]	pre-steady-state target cleavage rate [1, 6]
UCCUGGAUGUCCUUGCAUAGUAUUUUCUUA	0.00231 ± 0.0049	0.000617 ± 0.01	0.000332 ± 0.019	
UCCUGGAUGUCGAAGGCAUAGUAUUUAGUUA	0.00109 ± 0.0066	0.00272 ± 0.0038	0.00013 ± 0.044	
UCCUGGAUGAGCUUGCAUAGUAUUAACAAA	0.00188 ± 0.004	0.00156 ± 0.005	0.000283 ± 0.03	
UCCUGGAUGUCGUUGCAUAGUAUUAUAGUUA	0.00131 ± 0.0059	0.00201 ± 0.0053	0.000226 ± 0.046	
UCCUGGAUGAGGUUCCAUAGUAUUUAGUUA	0.000699 ± 0.012	0.000358 ± 0.01	0.000124 ± 0.07	
UCCUGGUACUCCUUGCAUAGUAUUUACAAA	0.00129 ± 0.0066	0.000535 ± 0.0067	0.000151 ± 0.058	
UCCUGCUACAGCUUGCAUAGAUUUUAGUAA	0.00158 ± 0.0044	0.0033 ± 0.0022	0.000373 ± 0.011	
UCCUGGAACAGCUUCCAUAGAAUUUAGUUA	0.000986 ± 0.0058	0.00172 ± 0.0029	0.000481 ± 0.012	
UCCUCCUACAGCUUGCAUAGUUUUAGUUA	0.00127 ± 0.0056	0.00276 ± 0.0023	0.0002 ± 0.019	
UCCUCCUACAGCUUGCAUAGUAUUAUCUAA	0.00142 ± 0.0034	0.00413 ± 0.0033	0.000316 ± 0.015	
UCCUGGAUGAGCUUGCAUAGUAUUAUCUUA	0.00246 ± 0.0037	0.000951 ± 0.0049	0.000546 ± 0.015	
UCCUGGAUGUCGAAGCAUAGUAUUUAGUCA	0.00113 ± 0.0038	0.00093 ± 0.0087	< 0.0001	
UCCUGGAUGUCCUAGCAUAGUAUUAAGUUA	0.00104 ± 0.0053	0.000274 ± 0.0081	0.00012 ± 0.023	
UCCUCCUACAGCUUGGUAAGUAUUUAGUUA	0.00114 ± 0.0036	0.00379 ± 0.0034	0.000918 ± 0.0067	
UCCUGGAACAGCUUGCAUUGUAUUUUCAAA	0.00205 ± 0.004	0.00128 ± 0.0038	0.000273 ± 0.026	
UCCUGGUACAGCUUGCAUAGAUAAAUCAAA [g11:g24:cont:t1A]	0.0003 ± 0.016	0.000426 ± 0.01	0.000609 ± 0.01	
UCCUGGAUGUCGAUGCAUAGUAAUUAGAUA	0.000772 ± 0.011	0.00156 ± 0.004	0.000201 ± 0.026	
UCCUGGUACAGCUUGCAUAGAUAUUACAAA	0.000675 ± 0.011	0.000405 ± 0.014	0.000362 ± 0.019	
UCCUGGAUGUCGUUGCAUAGUAUUUGGUUA	0.00239 ± 0.0038	0.00273 ± 0.0046	0.000326 ± 0.029	
UCCUGCUACACGUUGCAUAGUAUUUUCAAA	0.000593 ± 0.011	0.000548 ± 0.0063	0.000291 ± 0.025	
UCCUGGAUGAGCUUGCAUAGAUAUUACAAA	0.00102 ± 0.0076	0.00153 ± 0.0072	0.000391 ± 0.022	
UCCUGGAUGUCCUUGCAGAGUAUUUAGUUA		0.000448 ± 0.011	0.000224 ± 0.029	0.00362 ± 0.0046
UCCUGCUACAGCUUGCAUUGUAUUUUCAAA	0.00111 ± 0.0046	0.000951 ± 0.0037	0.000152 ± 0.029	
UCCUGGAUGUCCUUCCAUACUAUUUAGUUA	0.000116 ± 0.029	0.000689 ± 0.0067	0.000108 ± 0.045	
UCCUGGAUGUCGUUGCAUAGUACUUUAGUUA		0.000363 ± 0.01	0.000514 ± 0.016	0.000491 ± 0.018

Some of the entries so far, with bars between the fields.
Sequence | pre-steady-state target cleavage rate [1, 3] | pre-steady-state target cleavage rate [2, 4] | pre-steady-state target cleavage rate [2, 5] | pre-steady-state target cleavage rate [1, 6]
UCCUGGAUGUCGAAGGCAUAGUAUUUAGUUA | 0.00109 ± 0.0066 | 0.00272 ± 0.0038 | 0.00013 ± 0.044 | 
UCCUGGAUGAGCUUGCAUAGUAUUAACAAA | 0.00188 ± 0.004 | 0.00156 ± 0.005 | 0.000283 ± 0.03 | 
UCCUGGAUGUCGUUGCAUAGUAUUAUAGUUA | 0.00131 ± 0.0059 | 0.00201 ± 0.0053 | 0.000226 ± 0.046 | 
UCCUGGAUGAGGUUCCAUAGUAUUUAGUUA | 0.000699 ± 0.012 | 0.000358 ± 0.01 | 0.000124 ± 0.07 | 
UCCUGGUACUCCUUGCAUAGUAUUUACAAA | 0.00129 ± 0.0066 | 0.000535 ± 0.0067 | 0.000151 ± 0.058 | 
